We go through three molecules from publication PMC7282668.

In assay [1] the target is T1, ALP1-nYFP (35S::ALP1-nYFP), BiFC fusion (Arabidopsis thaliana) (UniProt Q94K49).
T1 sequence: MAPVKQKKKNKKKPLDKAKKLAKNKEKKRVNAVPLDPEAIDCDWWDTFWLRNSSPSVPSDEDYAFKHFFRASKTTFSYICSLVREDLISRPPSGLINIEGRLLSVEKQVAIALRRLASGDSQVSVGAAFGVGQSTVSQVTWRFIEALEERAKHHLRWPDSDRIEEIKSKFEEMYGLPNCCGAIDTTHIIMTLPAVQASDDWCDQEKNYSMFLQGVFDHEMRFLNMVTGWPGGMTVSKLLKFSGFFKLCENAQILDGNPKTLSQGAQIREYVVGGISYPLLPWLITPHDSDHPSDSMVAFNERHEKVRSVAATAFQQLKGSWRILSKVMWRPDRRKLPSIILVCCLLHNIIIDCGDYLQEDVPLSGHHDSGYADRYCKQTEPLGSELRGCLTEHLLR
Nature of the assay: split reporter; BiFC with split YFP fusions in N. benthamiana leaf epidermis after Agrobacterium infiltration; confocal microscopy.

Assay [2] has as its target T2, CLF, BiFC split YFP fusion (Arabidopsis thaliana) (UniProt P93831).
T2 sequence: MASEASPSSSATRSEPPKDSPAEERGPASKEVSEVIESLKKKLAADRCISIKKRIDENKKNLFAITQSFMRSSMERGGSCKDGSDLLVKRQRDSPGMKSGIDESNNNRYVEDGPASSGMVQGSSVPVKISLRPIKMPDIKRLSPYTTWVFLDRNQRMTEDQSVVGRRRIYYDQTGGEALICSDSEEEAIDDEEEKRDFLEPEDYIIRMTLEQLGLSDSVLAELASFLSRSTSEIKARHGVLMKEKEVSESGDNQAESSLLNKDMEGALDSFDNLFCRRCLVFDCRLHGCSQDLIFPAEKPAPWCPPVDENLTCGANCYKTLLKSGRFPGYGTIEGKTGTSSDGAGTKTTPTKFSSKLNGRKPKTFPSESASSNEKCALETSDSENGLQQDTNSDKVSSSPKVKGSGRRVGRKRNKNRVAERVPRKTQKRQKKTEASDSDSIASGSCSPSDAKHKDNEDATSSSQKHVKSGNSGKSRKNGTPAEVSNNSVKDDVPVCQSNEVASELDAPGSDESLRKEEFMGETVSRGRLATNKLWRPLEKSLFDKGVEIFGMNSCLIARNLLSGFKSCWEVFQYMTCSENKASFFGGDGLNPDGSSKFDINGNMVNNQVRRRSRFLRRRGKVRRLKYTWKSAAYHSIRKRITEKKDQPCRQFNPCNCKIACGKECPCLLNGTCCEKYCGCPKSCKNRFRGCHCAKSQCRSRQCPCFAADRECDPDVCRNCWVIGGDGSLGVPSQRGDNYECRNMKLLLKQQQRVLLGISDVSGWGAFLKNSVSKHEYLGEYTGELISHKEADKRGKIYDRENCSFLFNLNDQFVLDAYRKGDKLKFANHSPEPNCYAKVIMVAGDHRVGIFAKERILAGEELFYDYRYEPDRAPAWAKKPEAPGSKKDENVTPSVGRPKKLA
The assay is described as above.

Assay [3] deals with T3, EMF2, BiFC split YFP fusion (Arabidopsis thaliana) (UniProt Q8L6Y4).
T3 sequence: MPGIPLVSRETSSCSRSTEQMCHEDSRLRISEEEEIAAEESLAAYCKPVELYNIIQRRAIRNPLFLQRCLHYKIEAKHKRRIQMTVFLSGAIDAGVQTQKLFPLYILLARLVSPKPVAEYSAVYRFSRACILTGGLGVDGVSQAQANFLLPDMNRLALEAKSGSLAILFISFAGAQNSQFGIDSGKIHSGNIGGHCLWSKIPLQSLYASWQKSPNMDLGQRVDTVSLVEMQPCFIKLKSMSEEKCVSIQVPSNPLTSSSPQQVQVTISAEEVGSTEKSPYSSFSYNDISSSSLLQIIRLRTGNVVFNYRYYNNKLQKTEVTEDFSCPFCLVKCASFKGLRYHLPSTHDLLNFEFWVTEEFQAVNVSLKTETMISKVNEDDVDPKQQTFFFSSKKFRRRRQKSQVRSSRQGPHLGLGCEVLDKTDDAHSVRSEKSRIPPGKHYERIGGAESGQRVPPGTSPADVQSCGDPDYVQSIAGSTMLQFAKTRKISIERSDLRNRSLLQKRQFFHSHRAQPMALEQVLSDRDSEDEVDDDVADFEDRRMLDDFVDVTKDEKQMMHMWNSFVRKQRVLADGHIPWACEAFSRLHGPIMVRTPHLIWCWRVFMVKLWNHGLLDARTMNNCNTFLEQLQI
The description is as above.

Assay [4] concerns the target T4, FIE, BiFC split YFP fusion (Arabidopsis thaliana) (UniProt Q9LT47).
T4 sequence: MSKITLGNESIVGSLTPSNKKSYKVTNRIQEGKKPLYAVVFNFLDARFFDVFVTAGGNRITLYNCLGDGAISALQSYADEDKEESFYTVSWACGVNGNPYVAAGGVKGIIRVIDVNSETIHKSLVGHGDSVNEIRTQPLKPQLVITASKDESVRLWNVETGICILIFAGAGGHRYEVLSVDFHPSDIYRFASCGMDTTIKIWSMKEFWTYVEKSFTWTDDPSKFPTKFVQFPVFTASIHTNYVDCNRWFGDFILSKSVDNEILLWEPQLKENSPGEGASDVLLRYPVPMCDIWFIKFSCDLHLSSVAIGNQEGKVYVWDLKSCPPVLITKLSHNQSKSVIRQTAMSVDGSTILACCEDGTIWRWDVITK
Described as above.

In assay [5] the target is T5, LHP1, BiFC split YFP fusion (Arabidopsis thaliana) (UniProt Q946J8).
T5 sequence: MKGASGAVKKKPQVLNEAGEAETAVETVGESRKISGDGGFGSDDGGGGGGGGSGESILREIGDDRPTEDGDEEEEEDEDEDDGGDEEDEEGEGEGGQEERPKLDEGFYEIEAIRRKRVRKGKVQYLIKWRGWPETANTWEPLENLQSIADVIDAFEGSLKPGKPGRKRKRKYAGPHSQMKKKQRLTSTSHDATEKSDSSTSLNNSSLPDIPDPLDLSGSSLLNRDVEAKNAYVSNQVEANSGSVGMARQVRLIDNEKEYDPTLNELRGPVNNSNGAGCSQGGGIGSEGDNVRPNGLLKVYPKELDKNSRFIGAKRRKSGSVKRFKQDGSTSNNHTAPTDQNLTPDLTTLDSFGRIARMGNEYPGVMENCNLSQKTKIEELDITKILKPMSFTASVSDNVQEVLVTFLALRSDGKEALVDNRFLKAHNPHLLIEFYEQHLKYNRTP
The description is as above.

The target in assay [6] is T6, SWN, BiFC split YFP fusion (Arabidopsis thaliana) (UniProt Q9ZSM8).
T6 sequence: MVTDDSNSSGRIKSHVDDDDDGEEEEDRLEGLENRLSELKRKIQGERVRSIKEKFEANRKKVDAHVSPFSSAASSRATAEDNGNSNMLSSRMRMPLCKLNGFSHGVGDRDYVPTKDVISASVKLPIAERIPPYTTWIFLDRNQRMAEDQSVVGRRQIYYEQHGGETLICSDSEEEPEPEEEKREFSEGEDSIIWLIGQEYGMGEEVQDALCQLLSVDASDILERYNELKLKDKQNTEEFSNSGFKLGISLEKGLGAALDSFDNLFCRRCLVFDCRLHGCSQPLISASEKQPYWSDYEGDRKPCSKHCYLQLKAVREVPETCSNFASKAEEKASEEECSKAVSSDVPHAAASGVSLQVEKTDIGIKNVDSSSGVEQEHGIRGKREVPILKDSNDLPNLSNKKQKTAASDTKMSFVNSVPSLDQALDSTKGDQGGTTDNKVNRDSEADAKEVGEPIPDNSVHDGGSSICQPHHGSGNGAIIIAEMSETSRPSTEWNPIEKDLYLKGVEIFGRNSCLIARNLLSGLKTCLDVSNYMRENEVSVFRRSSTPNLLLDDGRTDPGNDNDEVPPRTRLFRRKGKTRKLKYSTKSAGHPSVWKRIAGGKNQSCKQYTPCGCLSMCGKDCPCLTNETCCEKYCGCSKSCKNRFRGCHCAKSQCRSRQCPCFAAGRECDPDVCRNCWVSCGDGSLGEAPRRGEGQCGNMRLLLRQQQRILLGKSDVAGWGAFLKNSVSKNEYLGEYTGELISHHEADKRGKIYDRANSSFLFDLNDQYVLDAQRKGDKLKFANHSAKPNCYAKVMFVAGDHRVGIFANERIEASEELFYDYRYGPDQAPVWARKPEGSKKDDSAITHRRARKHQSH
Described as above.

Assay [7] concerns the target T7, ALP1, full length, yeast two-hybrid fusion (Arabidopsis thaliana) (UniProt Q94K49).
T7 sequence: T1 sequence
Nature of the assay: two-hybrid; Gal4 bait and prey fusions in Y2HGold yeast; growth on -LWH (low stringency) and -LWHA (high stringency) media.

The target of assay [8] is ALP2, BiFC split YFP fusion (Arabidopsis thaliana). Nature of the assay: split reporter; BiFC with split YFP fusions in N. benthamiana leaf epidermis after Agrobacterium infiltration; confocal microscopy.

Substitutions are numbered along the chain they refer to. Names may count otherwise. No constants are given. Whether binding was seen depends on the method and setting. For some assays here: A result given as binding can be weak or reduced; the word gives no strength. Where a sequence is shown, tags or fusion partners need not be part of it. For some assays here: Binding seen in cells or lysates may run through a third protein.

As to “ALP2, BiFC split YFP fusion (Arabidopsis thaliana)”, the binding result in assay [1] was “binds”; in assay [2] it was “no binding”; in assay [3] it was “no binding”; in assay [4], “no binding”; in assay [5] it was “no binding”; in assay [6] it was “no binding”.

For “ALP2 C-terminal portion (amino acids 171-261), yeast two-hybrid fusion (Arabidopsis thaliana) (domain or fragment)”, the binding entry in assay [7] is “binds”.

B1: ALP1-1 (G273E) variant of ALP1, BiFC split YFP fusion (protein, UniProt Q94K49 1-396)
chain: T1 sequence with G273E
Regarding B1, the binding entry in assay [8] is “no binding”.
